Test results: the supplement of paper PMC12823440, “Inhibitors supercharge kinase turnover through native proteolytic circuits” (Nature, 2025)
Counter-ions that a name gives are not always drawn. The list shows a part of the results. Hit calls seldom repeat between salt and free forms of one compound.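 Kinases, fused to nanoluciferase, were expressed in K562 cells; luminescence was measured every 4 h from 2 to 18 h as percent of control (DMSO = 100%, positive control = 0%). A time point is decreased if signal falls significantly (2 sigma). Hits were called by the authors by a rule that is not shown; the count of time points alone does not decide it.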

Protein sequences, listed by entry. Tags and fused reporters are not part of them. Lines headed by an entry give the natural chain unless they say otherwise; changes in a name come on top.
UniProt O15530: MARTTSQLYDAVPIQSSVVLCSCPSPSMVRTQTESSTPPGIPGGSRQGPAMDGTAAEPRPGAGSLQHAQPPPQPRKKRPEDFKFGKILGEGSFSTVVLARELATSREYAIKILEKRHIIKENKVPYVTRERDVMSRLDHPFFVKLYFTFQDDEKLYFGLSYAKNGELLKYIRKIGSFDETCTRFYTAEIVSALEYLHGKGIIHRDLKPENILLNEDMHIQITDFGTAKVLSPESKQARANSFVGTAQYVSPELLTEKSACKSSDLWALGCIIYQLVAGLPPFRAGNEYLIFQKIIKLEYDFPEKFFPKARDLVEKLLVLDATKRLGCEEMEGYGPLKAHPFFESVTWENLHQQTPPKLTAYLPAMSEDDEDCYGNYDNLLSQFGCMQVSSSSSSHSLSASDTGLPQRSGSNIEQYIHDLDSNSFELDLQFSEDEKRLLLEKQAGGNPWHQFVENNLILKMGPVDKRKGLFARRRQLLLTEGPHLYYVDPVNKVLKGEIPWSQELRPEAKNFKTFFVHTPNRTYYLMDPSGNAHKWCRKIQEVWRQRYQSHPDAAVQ
UniProt P42356, whole entry, looked up: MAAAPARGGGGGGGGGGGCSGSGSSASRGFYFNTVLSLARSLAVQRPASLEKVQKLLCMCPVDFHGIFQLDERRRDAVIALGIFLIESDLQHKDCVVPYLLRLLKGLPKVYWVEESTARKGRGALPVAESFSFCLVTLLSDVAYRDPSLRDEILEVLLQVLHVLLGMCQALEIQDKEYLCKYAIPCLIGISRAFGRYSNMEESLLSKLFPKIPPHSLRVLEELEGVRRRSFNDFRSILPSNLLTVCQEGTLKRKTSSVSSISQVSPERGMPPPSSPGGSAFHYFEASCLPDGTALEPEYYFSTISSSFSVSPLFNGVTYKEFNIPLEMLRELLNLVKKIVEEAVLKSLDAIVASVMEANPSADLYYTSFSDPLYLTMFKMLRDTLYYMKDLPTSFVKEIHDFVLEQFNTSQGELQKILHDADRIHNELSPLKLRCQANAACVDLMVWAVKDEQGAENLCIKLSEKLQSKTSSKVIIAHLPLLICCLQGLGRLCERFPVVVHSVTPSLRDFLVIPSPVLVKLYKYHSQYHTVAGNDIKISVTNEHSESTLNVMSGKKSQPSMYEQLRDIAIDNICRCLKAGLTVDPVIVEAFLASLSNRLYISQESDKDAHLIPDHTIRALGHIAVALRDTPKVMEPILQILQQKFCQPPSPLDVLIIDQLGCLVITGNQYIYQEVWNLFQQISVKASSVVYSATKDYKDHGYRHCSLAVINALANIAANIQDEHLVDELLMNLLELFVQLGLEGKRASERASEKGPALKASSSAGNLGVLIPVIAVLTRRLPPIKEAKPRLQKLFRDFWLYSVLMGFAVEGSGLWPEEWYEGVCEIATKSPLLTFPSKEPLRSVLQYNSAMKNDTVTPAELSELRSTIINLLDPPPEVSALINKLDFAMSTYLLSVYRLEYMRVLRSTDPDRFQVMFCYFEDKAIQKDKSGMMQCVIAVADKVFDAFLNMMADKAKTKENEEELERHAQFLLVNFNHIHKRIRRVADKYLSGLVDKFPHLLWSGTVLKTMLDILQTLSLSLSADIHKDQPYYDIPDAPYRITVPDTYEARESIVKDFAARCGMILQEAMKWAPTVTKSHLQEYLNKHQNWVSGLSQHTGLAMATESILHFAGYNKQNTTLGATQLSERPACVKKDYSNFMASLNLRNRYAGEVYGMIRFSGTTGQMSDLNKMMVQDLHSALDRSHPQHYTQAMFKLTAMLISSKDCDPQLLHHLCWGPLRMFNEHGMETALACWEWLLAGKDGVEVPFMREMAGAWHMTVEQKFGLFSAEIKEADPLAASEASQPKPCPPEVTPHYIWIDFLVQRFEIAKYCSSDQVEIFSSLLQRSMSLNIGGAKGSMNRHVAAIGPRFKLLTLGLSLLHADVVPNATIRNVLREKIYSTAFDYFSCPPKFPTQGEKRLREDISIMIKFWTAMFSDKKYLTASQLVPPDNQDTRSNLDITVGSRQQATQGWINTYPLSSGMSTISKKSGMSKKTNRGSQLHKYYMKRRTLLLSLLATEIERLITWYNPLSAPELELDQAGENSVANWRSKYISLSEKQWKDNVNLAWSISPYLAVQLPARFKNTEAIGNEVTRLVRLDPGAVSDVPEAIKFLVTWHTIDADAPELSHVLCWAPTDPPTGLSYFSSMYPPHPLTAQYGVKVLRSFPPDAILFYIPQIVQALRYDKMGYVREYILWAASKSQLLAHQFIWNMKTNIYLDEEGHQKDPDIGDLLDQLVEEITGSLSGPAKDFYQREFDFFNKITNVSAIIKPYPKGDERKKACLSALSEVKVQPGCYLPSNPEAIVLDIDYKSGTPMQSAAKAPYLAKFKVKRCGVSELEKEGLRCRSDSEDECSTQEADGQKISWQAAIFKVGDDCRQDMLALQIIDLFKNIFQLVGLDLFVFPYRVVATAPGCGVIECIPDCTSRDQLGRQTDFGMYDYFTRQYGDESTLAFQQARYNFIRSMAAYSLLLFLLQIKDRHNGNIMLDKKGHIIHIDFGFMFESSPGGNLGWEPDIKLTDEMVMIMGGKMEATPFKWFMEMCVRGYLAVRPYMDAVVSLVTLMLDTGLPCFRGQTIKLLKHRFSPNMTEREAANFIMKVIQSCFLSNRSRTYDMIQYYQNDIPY
UniProt P53350, whole entry: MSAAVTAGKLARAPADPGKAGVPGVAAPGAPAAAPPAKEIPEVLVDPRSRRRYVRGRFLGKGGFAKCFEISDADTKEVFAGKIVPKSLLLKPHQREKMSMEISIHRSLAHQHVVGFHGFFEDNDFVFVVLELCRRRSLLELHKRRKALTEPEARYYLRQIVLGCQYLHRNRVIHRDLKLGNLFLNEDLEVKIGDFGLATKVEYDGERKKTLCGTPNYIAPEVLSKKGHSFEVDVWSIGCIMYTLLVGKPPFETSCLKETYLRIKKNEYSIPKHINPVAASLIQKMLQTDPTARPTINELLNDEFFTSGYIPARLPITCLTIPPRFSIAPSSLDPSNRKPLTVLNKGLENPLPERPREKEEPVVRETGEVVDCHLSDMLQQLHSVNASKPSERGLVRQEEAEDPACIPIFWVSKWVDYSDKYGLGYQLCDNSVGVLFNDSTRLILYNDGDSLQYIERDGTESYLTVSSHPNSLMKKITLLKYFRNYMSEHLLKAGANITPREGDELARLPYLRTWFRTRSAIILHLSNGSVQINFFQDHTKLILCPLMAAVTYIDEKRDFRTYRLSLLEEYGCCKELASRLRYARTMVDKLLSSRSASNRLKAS
UniProt Q13131: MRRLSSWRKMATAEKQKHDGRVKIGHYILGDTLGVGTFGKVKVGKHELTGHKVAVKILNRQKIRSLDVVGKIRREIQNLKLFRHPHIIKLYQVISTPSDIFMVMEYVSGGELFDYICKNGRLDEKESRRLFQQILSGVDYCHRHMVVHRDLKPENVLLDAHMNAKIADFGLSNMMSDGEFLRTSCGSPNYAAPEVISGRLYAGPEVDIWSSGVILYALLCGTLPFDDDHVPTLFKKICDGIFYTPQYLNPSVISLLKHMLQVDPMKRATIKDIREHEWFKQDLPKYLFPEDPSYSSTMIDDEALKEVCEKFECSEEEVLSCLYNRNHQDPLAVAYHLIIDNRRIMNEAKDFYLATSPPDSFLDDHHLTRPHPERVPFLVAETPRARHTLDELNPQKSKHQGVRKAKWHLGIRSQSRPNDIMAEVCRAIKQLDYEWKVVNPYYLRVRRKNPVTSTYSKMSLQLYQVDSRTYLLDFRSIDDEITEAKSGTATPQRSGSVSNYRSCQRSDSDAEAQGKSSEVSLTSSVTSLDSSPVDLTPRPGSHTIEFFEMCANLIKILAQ
UniProt Q05397, whole entry, looked up: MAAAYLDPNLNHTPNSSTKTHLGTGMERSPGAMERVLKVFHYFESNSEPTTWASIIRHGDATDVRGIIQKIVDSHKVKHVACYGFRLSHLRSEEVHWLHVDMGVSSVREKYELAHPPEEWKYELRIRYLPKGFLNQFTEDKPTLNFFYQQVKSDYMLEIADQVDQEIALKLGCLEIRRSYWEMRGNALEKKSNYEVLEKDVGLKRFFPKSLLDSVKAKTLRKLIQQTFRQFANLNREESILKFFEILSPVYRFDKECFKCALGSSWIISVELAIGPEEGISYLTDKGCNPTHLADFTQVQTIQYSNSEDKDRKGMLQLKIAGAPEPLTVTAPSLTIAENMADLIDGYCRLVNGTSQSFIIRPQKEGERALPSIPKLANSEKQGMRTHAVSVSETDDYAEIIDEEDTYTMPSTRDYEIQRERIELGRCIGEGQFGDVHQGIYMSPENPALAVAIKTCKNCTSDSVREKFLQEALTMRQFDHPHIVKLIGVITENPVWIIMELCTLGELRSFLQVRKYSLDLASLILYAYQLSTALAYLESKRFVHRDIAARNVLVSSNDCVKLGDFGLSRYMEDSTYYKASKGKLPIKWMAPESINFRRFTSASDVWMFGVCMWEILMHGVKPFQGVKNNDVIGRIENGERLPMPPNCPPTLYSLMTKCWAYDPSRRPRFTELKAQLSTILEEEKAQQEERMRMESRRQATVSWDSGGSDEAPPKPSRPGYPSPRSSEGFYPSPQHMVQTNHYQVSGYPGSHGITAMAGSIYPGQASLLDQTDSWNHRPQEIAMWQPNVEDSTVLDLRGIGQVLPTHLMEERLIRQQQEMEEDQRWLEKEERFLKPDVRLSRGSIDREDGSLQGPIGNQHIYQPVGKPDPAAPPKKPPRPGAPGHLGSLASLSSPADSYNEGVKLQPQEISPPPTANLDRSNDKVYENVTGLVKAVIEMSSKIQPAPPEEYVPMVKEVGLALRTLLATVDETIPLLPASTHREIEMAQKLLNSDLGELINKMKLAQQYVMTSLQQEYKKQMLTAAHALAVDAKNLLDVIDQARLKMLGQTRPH
UniProt Q14289, whole entry, looked up: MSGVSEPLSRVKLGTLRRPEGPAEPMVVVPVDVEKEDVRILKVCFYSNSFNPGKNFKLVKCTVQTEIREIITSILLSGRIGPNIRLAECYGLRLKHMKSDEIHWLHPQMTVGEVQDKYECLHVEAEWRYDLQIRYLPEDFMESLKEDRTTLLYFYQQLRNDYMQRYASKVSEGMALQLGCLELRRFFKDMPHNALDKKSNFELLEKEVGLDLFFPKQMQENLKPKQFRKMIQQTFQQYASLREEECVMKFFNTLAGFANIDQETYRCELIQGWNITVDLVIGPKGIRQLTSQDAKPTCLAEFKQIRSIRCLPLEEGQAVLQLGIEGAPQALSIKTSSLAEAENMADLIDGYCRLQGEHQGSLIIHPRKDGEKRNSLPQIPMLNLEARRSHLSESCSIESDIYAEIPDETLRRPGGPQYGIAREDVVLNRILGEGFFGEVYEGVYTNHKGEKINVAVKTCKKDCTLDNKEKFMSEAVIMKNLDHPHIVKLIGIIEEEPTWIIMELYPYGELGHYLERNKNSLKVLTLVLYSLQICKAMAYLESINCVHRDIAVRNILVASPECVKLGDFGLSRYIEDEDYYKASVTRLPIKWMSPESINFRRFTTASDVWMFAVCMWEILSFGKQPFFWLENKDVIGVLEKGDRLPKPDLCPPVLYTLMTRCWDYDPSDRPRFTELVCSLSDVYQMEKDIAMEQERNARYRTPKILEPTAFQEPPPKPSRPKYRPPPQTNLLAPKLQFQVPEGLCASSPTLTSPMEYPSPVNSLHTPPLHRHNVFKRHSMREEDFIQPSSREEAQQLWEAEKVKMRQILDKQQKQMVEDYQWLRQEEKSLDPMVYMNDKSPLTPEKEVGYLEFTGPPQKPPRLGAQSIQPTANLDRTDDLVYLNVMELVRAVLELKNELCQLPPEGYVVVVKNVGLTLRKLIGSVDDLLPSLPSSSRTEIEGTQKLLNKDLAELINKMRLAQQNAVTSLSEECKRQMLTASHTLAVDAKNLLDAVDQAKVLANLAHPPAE

What was measured:
Assay in all cases: kinase-Nluc reporter destabilization hit call (1 = scored as downregulated) (binary); higher = compound decreases kinase abundance
Conditions in all cases: K562; 2-18 h
PDPK1 = PDPK1 (UniProt O15530)
PIK4CA = PIK4CA (UniProt P42356)
PIK4CB = PIK4CB (UniProt Q9UBF8)
PLK1 = PLK1 (UniProt P53350)
PRKAA1 = PRKAA1 (UniProt Q13131)
PRKCA = PRKCA (UniProt P17252)
PTK2 = PTK2 (UniProt Q05397)
PTK2B = PTK2B (UniProt Q14289)
RAF1 = RAF1 (UniProt P04049)
[1] = target: RAF1_S257L (clone: RAF1_mut) (UniProt P04049)

Measured: kinase-Nluc reporter destabilization hit call

CN(C)CCn1cc2cc(NC(=O)c3cccc(C(F)(F)F)n3)c(C(C)(C)O)cc2n1 (10 µM)
inactive: PDPK1 = 0 | PIK4CA 0 | PIK4CB 0 | PLK1 = 0 | PRKAA1 = 0 | PRKCA 0 | PTK2 = 0 | PTK2B 0 | RAF1 = 0 | [1] 0

CN(C)CCOc1cc(-c2cn[nH]c2)ccc1NC(=O)C1COc2ccccc2O1 (stereo not given) (10 µM)
inactive: PDPK1 = 0 | PIK4CA 0 | PIK4CB 0 | PLK1 = 0 | PRKAA1 = 0 | PRKCA 0 | PTK2 = 0 | PTK2B 0 | RAF1 = 0 | [1] 0

NC(=O)c1c(NC(=O)C2CC2)sc2c1CCCC2 (10 µM)
inactive: PDPK1 = 0 | PIK4CA 0 | PIK4CB 0 | PLK1 = 0 | PRKAA1 = 0 | PRKCA 0 | PTK2 = 0 | PTK2B 0 | RAF1 = 0 | [1] 0

O=C1C=CC2=C3c4cc(O)c(O)cc4CC3(O)COC2=C1O (stereo not given) [Hematein] (10 µM)
inactive: PDPK1 = 0 | PIK4CA 0 | PIK4CB 0 | PLK1 = 0 | PRKAA1 = 0 | PRKCA 0 | PTK2 = 0 | PTK2B 0 | RAF1 = 0 | [1] 0

COc1cc2nnc(C(N)=O)c(Nc3ccc(C)cc3F)c2cc1N1CCN(CCO)CC1 (2.5 µM)
inactive: PDPK1 = 0 | PIK4CA 0 | PIK4CB 0 | PLK1 = 0 | PRKAA1 = 0 | PRKCA 0 | PTK2 = 0 | PTK2B 0 | RAF1 = 0 | [1] 0

CCC(F)(F)c1cc(N2CCC(S(C)(=O)=O)CC2)nc2sc(C(N)=O)c(N)c12 (10 µM)
inactive: PDPK1 = 0 | PIK4CA 0 | PIK4CB 0 | PLK1 = 0 | PRKAA1 = 0 | PRKCA 0 | PTK2 = 0 | PTK2B 0 | RAF1 = 0 | [1] 0

COc1cc(N2CCC(O)CC2)ccc1Nc1nc(Nc2ccccc2S(=O)(=O)C(C)C)c2[nH]cnc2n1 (10 µM)
inactive: PDPK1 = 0 | PIK4CA 0 | PIK4CB 0 | PLK1 = 0 | PRKAA1 = 0 | PRKCA 0 | PTK2 = 0 | PTK2B 0 | RAF1 = 0 | [1] 0

O=C1Cc2ccccc2N1 [Oxindole] (10 µM)
inactive: PDPK1 = 0 | PIK4CA 0 | PIK4CB 0 | PLK1 = 0 | PRKAA1 = 0 | PRKCA 0 | PTK2 = 0 | PTK2B 0 | RAF1 = 0 | [1] 0

CC(C)(Oc1ccc(Cl)cc1)C(=O)Nc1ccc(OCc2ccc(C#N)cc2)cc1 [AMPK activator 4] (10 µM)
inactive: PDPK1 = 0 | PIK4CA 0 | PIK4CB 0 | PLK1 = 0 | PRKAA1 = 0 | PRKCA 0 | PTK2 = 0 | PTK2B 0 | RAF1 = 0 | [1] 0

CC(C)n1cnc2c(Nc3cccc(Cl)c3)nc(N[C@H]3CCCC[C@@H]3N)nc21 (2.5 µM)
inactive: PDPK1 = 0 | PIK4CA 0 | PIK4CB 0 | PLK1 = 0 | PRKAA1 = 0 | PRKCA 0 | PTK2 = 0 | PTK2B 0 | RAF1 = 0 | [1] 0

CNCc1ccccc1Sc1cccc2ccccc12 [IFN alpha-IFNAR-IN-1 (hydrochloride)] (10 µM)
inactive: PDPK1 = 0 | PIK4CA 0 | PIK4CB 0 | PLK1 = 0 | PRKAA1 = 0 | PRKCA 0 | PTK2 = 0 | PTK2B 0 | RAF1 = 0 | [1] 0

Cc1nn(CC(F)(F)F)cc1Nc1ncc(Br)c(NCc2ccc(S(N)(=O)=O)cc2)n1 (10 µM)
inactive: PDPK1 = 0 | PIK4CA 0 | PIK4CB 0 | PLK1 = 0 | PRKAA1 = 0 | PRKCA 0 | PTK2 = 0 | PTK2B 0 | RAF1 = 0 | [1] 0

Cc1nc(Nc2cnn(C3CCNCC3)c2)nc2c1N(C)C(=O)c1cc3ccccc3cc1N2C (2.5 µM)
inactive: PDPK1 = 0 | PIK4CA 0 | PIK4CB 0 | PLK1 = 0 | PRKAA1 = 0 | PRKCA 0 | PTK2 = 0 | PTK2B 0 | RAF1 = 0 | [1] 0

C[C@@H]1COC(Nc2ccc3ncnc(Nc4ccc(OCc5nccs5)c(Cl)c4)c3c2)=N1 [Varlitinib] (10 µM)
inactive: PDPK1 = 0 | PIK4CA 0 | PIK4CB 0 | PLK1 = 0 | PRKAA1 = 0 | PRKCA 0 | PTK2B 0 | RAF1 = 0 | [1] 0
active: PTK2 = 1

CNCc1cc(Oc2ccc3c(ccn3C(=O)Nc3cc(C(F)(F)F)n(C)n3)c2)ncn1 [Acrizanib] (10 µM)
inactive: PDPK1 = 0 | PIK4CA 0 | PIK4CB 0 | PLK1 = 0 | PRKAA1 = 0 | PRKCA 0 | PTK2 = 0 | PTK2B 0 | RAF1 = 0 | [1] 0

C=CC(=O)N1CCC(c2ccc(C(N)=O)c(-c3ccc(Oc4ccccc4)cc3)n2)CC1 [Orelabrutinib] (2.5 µM)
inactive: PDPK1 = 0 | PIK4CA 0 | PIK4CB 0 | PLK1 = 0 | PRKAA1 = 0 | PRKCA 0 | PTK2 = 0 | PTK2B 0 | RAF1 = 0 | [1] 0

CCNC(=O)Nc1ccc(-c2nc3c(c(N4CCOC[C@@H]4C)n2)CCN(C2COC2)C3)cc1 (2.5 µM)
inactive: PDPK1 = 0 | PIK4CA 0 | PIK4CB 0 | PLK1 = 0 | PRKAA1 = 0 | PRKCA 0 | PTK2 = 0 | PTK2B 0 | RAF1 = 0 | [1] 0

O=C(CCl)c1c[nH]c2ccccc12 (2.5 µM)
inactive: PDPK1 = 0 | PIK4CA 0 | PIK4CB 0 | PLK1 = 0 | PRKAA1 = 0 | PRKCA 0 | PTK2 = 0 | PTK2B 0 | RAF1 = 0 | [1] 0

CCOc1cc(=O)[nH]cc1-c1ccc(CC(=O)Nc2cc(C(C)(C)C(F)(F)F)on2)c(F)c1 (10 µM)
inactive: PDPK1 = 0 | PIK4CA 0 | PIK4CB 0 | PLK1 = 0 | PRKAA1 = 0 | PRKCA 0 | PTK2 = 0 | PTK2B 0 | RAF1 = 0 | [1] 0

CCCCNc1ncc(C(=O)NCc2ccc(-n3ccnc3)cc2)c(NC2CCC(O)CC2)n1 (stereo not given) (10 µM)
inactive: PDPK1 = 0 | PIK4CA 0 | PIK4CB 0 | PLK1 = 0 | PRKAA1 = 0 | PRKCA 0 | PTK2 = 0 | PTK2B 0 | RAF1 = 0 | [1] 0

CCC[C@H](C)Oc1nc(N)c2[nH]c(=O)n(CCCCCN3CCCCC3)c2n1 (10 µM)
inactive: PDPK1 = 0 | PIK4CA 0 | PIK4CB 0 | PLK1 = 0 | PRKAA1 = 0 | PRKCA 0 | PTK2 = 0 | PTK2B 0 | RAF1 = 0 | [1] 0

Cc1n[nH]c2ncc(C(=O)N3CCC[C@H]3c3ccc(Cl)cc3)cc12 (10 µM)
inactive: PDPK1 = 0 | PIK4CA 0 | PIK4CB 0 | PLK1 = 0 | PRKAA1 = 0 | PRKCA 0 | PTK2 = 0 | PTK2B 0 | RAF1 = 0 | [1] 0

S=C(NCc1ccc2c(c1)OCO2)N1CCN(c2ncnc3c2oc2ccccc23)CC1 [Amuvatinib] (2.5 µM)
inactive: PDPK1 = 0 | PIK4CA 0 | PIK4CB 0 | PLK1 = 0 | PRKAA1 = 0 | PRKCA 0 | PTK2 = 0 | PTK2B 0 | RAF1 = 0 | [1] 0

CCCCC(=O)OCC(=O)[C@]1(O)Cc2c(O)c3c(c(O)c2[C@@H](O[C@H]2C[C@H](NC(=O)C(F)(F)F)[C@H](O)[C@H](C)O2)C1)C(=O)c1c(OC)cccc1C3=O [Valrubicin] (10 µM)
inactive: PDPK1 = 0 | PIK4CA 0 | PIK4CB 0 | PLK1 = 0 | PRKAA1 = 0 | PRKCA 0 | PTK2 = 0 | PTK2B 0 | RAF1 = 0 | [1] 0

O=C1CCC(N2C(=O)c3cccc(OCCCCCOc4ccc(CC(=O)Nc5cc(C6CCC6)[nH]n5)cc4)c3C2=O)C(=O)N1 (stereo not given) [PROTAC CDK9 Degrader-1] (10 µM)
inactive: PDPK1 = 0 | PIK4CA 0 | PIK4CB 0 | PLK1 = 0 | PRKAA1 = 0 | PRKCA 0 | PTK2 = 0 | PTK2B 0 | RAF1 = 0 | [1] 0

CC(=O)O/N=C1/C(c2c(O)[nH]c3cc(Br)ccc23)=Nc2ccccc21 [BIO-acetoxime] (10 µM)
inactive: PDPK1 = 0 | PIK4CA 0 | PIK4CB 0 | PLK1 = 0 | PRKAA1 = 0 | PRKCA 0 | PTK2 = 0 | PTK2B 0 | RAF1 = 0 | [1] 0

Three structures from above, ordered by SMILES length, ascending:
CN(C)CCOc1cc(-c2cn[nH]c2)ccc1NC(=O)C1COc2ccccc2O1 (stereo not given) (10 µM)
inactive: PDPK1 = 0 | PIK4CA 0 | PIK4CB 0 | PLK1 = 0 | PRKAA1 = 0 | PRKCA 0 | PTK2 = 0 | PTK2B 0 | RAF1 = 0 | [1] 0

CCC(F)(F)c1cc(N2CCC(S(C)(=O)=O)CC2)nc2sc(C(N)=O)c(N)c12 (10 µM)
inactive: PDPK1 = 0 | PIK4CA 0 | PIK4CB 0 | PLK1 = 0 | PRKAA1 = 0 | PRKCA 0 | PTK2 = 0 | PTK2B 0 | RAF1 = 0 | [1] 0

Cc1nn(CC(F)(F)F)cc1Nc1ncc(Br)c(NCc2ccc(S(N)(=O)=O)cc2)n1 (10 µM)
inactive: PDPK1 = 0 | PIK4CA 0 | PIK4CB 0 | PLK1 = 0 | PRKAA1 = 0 | PRKCA 0 | PTK2 = 0 | PTK2B 0 | RAF1 = 0 | [1] 0

Remaining list, next part.

Nc1nccc(Oc2ccc3c(C(=O)Nc4cccc(C(F)(F)F)c4)cccc3c2)n1 (10 µM)
inactive: PDPK1 = 0 | PIK4CA 0 | PIK4CB 0 | PLK1 = 0 | PRKAA1 = 0 | PRKCA 0 | PTK2 = 0 | PTK2B 0 | RAF1 = 0 | [1] 0

Nc1ccc(Sc2nc3ccccc3s2)c(Cl)c1 [KRAS inhibitor-9] (10 µM)
inactive: PDPK1 = 0 | PIK4CA 0 | PIK4CB 0 | PLK1 = 0 | PRKAA1 = 0 | PRKCA 0 | PTK2 = 0 | PTK2B 0 | RAF1 = 0 | [1] 0
